{
  "sequences": {"note": "Sequences of proteins named here, by UniProt entry; tags and fusion partners are left off. A change or cut given only in a name is not applied to a line headed by its entry.", "UniProt Q9ERD7": "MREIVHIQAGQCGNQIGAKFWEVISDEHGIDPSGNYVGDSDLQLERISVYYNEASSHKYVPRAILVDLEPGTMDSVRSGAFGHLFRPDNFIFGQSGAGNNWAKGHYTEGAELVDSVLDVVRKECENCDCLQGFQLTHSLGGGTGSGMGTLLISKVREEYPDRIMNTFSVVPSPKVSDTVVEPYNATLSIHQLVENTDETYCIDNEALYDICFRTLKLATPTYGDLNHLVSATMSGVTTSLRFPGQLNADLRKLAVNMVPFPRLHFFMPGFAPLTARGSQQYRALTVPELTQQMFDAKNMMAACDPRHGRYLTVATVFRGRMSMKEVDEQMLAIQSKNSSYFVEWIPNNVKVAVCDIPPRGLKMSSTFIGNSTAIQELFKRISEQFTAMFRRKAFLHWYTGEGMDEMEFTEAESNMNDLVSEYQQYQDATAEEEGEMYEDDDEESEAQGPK", "UniProt Q60932": "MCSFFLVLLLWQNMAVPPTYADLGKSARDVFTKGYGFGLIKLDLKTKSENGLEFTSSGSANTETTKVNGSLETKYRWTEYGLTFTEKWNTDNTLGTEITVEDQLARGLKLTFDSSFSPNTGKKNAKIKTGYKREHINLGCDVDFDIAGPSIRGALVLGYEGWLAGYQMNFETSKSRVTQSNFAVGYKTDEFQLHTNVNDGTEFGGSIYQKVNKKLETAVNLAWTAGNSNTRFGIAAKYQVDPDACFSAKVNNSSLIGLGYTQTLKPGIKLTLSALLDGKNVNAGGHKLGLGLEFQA"},
  "source": "paper PMC7700438",
  "molecular_target": "tubulin βIII isoform, endogenous in Wt Ras MEFs (mouse (endogenous in Ras MEFs)) (UniProt Q9ERD7)",
  "assay": "co-IP; 500 µg whole cell extract of Wt Ras MEFs in RIPA-TRIS EDTA buffer, anti-β-III tubulin (D71G9) plus DynaBeads Protein G overnight, immunoblot for VDAC1; rabbit IgG as negative control; cells from normoxia or hypoxia",
  "note": "These are yes or no findings as the source states them, for the method shown. In cells and extracts the contact can be indirect. Binding can be weak; no strength is given.",
  "data": [
    {"substance": "Voltage-dependent anion channel 1 (VDAC1), endogenous in Wt Ras MEFs (from UniProt Q60932)", "values": [
      {"measurement": "binding", "result": "binds"}
    ]}
  ]
}
